86 sequences from the supplement of paper PMC3334620 can be followed below.

In all, about 33,000 sequences were measured (“E-score (-0.5 to 0.5)”: median about -0.015, highest 2% from about 0.3 on). Some of the results follow.

This test has as its target T1, Abf1 (UniProt P14164).
T1 sequence: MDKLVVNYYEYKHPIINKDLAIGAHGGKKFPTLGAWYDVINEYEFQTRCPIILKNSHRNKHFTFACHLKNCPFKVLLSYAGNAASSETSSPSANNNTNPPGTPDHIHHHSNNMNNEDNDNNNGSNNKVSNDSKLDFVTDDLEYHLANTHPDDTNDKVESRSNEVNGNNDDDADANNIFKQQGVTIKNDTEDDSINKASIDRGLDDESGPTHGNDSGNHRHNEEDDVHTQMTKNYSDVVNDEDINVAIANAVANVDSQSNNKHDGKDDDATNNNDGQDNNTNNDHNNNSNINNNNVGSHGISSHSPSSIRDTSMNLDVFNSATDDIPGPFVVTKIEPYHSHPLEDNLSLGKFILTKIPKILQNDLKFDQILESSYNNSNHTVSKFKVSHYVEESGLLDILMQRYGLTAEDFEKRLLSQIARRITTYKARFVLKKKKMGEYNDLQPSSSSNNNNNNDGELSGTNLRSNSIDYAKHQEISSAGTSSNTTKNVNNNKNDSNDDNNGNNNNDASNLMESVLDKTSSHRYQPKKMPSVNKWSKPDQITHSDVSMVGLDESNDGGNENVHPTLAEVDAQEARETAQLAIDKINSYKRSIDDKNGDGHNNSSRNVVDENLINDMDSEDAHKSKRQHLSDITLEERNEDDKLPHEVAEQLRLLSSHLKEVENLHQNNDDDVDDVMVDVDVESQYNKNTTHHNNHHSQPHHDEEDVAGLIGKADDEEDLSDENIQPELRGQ
The test is described as follows: PBM E-score (8-mer binding enrichment) (E-score (-0.5 to 0.5)); higher = stronger / more preferred TF binding. The note with it: protein concentration: 200 nM; construct: GST-full length. The gist of the method: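 GST-tagged yeast TFs (full-length or DNA-binding domain) were made by PURExpress in vitro transcription/translation and applied at about 100-200 nM to universal all-10-mer Agilent arrays. The arrays were made double-stranded by primer extension, on fresh or once-stripped slides. Bound protein was detected with fluorescent anti-GST, and scans were normalised with masliner. Each ungapped eight-base word, pooled with its reverse complement, received an E-score (modified Wilcoxon-Mann-Whitney statistic) from the Universal PBM Analysis Suite.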
Turning to ATAATGAG, the “PBM E-score” value amounted to 0.117.

Turning to CACACCTG, the “PBM E-score” value was -0.19.

As to CTCAGTTC, the “PBM E-score” value is -0.0408.

As for AAACTGAT, the “PBM E-score” value is -0.0747.

As to GCTAACAA, the “PBM E-score” value stood at 0.0186.

Consider GGCGTGCA, for which the “PBM E-score” value was -0.0867.

Consider AAGTCTTA, for which the “PBM E-score” value is -0.0436.

As for GTAACAAC, the “PBM E-score” value came out at 0.165.

AACCAGTA: the “PBM E-score” value is 0.00228.

For CTAACAAA, the “PBM E-score” value is 0.0355.

TACACACA: the “PBM E-score” value is 0.007.

Take GTGCATGA: the “PBM E-score” value came out at 0.214.

With ACCATAGA, the “PBM E-score” value is -0.0622.

Consider CTCATCGC, for which the “PBM E-score” value worked out at 0.105.

Take CGTCGATC: the “PBM E-score” value came out at 0.163.

In the case of CGGCCAGC, the “PBM E-score” value was -0.133.

AGCCCGAG: the “PBM E-score” value was -0.236.

For the sequence AGAGCTCT, the “PBM E-score” value is -0.0826.

Consider GGCGATGA, for which the “PBM E-score” value amounted to 0.248.

As for ACCAGCAC, the “PBM E-score” value stood at 0.0609.

Consider CCAAGCCG, for which the “PBM E-score” value was -0.165.

With AATTGTCG, the “PBM E-score” value came out at 0.129.

Consider CGACGTGC, for which the “PBM E-score” value was determined as 0.134.

Consider ATCGTCTA, for which the “PBM E-score” value was found to be 0.257.

As to CGAACTTA, the “PBM E-score” value is 0.0969.

For the sequence AAGGAGTA, the “PBM E-score” value is -0.269.

Regarding CCTCGAAA, the “PBM E-score” value is -0.083.

With AGTCGACA, the “PBM E-score” value is 0.0421.

On to CTTAACTC, for which the “PBM E-score” value was 0.0297.

For the sequence TATGGCCA, the “PBM E-score” value is -0.247.

As for AAGGTATA, the “PBM E-score” value stood at 0.0451.

With ATCCGCGA, the “PBM E-score” value was found to be 0.158.

For CACCCACC, the “PBM E-score” value is -0.113.

Regarding CCCCAGAA, the “PBM E-score” value is -0.233.

Turning to ACCAATGG, the “PBM E-score” value was -0.235.

For TAAGCGCA, the “PBM E-score” value is -0.123.

Regarding ACTTCCCT, the “PBM E-score” value was -0.0731.

Regarding CAGGCGTA, the “PBM E-score” value was 0.00063.

CCCAGAGC: the “PBM E-score” value was -0.185.

For the sequence GGCATACA, the “PBM E-score” value was -0.128.

As for ACAGTCAC, the “PBM E-score” value was found to be 0.165.

Consider TAAGTTGA, for which the “PBM E-score” value turned out to be 0.0496.

With GGTTCACA, the “PBM E-score” value is -0.0114.

For GAGTGCCC, the “PBM E-score” value is -0.289.

For ACTTGGCA, the “PBM E-score” value is -0.199.

As to CGTAGCAG, the “PBM E-score” value came out at 0.0751.

Turning to GGACTTCA, the “PBM E-score” value is -0.0998.

Consider ACTTCGCG, for which the “PBM E-score” value worked out at 0.0559.

As to ACTACAAG, the “PBM E-score” value was found to be 0.0671.

With AGCCTATG, the “PBM E-score” value is -0.215.

In the case of GTTCTCAA, the “PBM E-score” value is 0.0822.

Turning to CGACGCAC, the “PBM E-score” value was found to be 0.0949.

In the case of GATGGACC, the “PBM E-score” value came out at 0.0701.

Consider CGTCTGTC, for which the “PBM E-score” value worked out at 0.151.

With CTACAAGA, the “PBM E-score” value is -0.177.

As to AATACTCG, the “PBM E-score” value turned out to be 0.146.

CGCTTTCA: the “PBM E-score” value was 0.0485.

With GACATGAA, the “PBM E-score” value was 0.126.

In the case of CGCGCACG, the “PBM E-score” value was found to be 0.103.

Consider CTTCTAAC, for which the “PBM E-score” value amounted to 0.0034.

On to AACTATAA, for which the “PBM E-score” value was found to be 0.075.

TAAGCCTA: the “PBM E-score” value was -0.00952.

Regarding CAGCTCCG, the “PBM E-score” value is -0.0337.

For the sequence CTCTAACC, the “PBM E-score” value is -0.259.

Turning to ATGACCCG, the “PBM E-score” value stood at 0.0898.

Regarding GCATACGA, the “PBM E-score” value is 0.0403.

On to CCGCAGAA, for which the “PBM E-score” value was found to be 0.0228.

Consider CATGTAGC, for which the “PBM E-score” value was 0.172.

AAGCGTGC: the “PBM E-score” value is -0.0316.

TCTTTGCA: the “PBM E-score” value was determined as 0.0758.

In the case of CGTTTTCC, the “PBM E-score” value is 0.119.

Take CATGACCC: the “PBM E-score” value is -0.0316.

With CTCAACCC, the “PBM E-score” value is -0.102.

As to GCCACCAC, the “PBM E-score” value is -0.119.

As to CACTTGCC, the “PBM E-score” value was -0.0188.

For the sequence CTCAGGTC, the “PBM E-score” value was 0.0718.

In the case of CTGCCTAA, the “PBM E-score” value is -0.0988.

Regarding GGAACAGA, the “PBM E-score” value was -0.127.

Consider ATTTATGG, for which the “PBM E-score” value was determined as 0.054.

AGCTACTG: the “PBM E-score” value is -0.0481.

For TGATTACA, the “PBM E-score” value worked out at 0.189.

As for TAACGCCA, the “PBM E-score” value is -0.12.

Consider CAACCTCC, for which the “PBM E-score” value is -0.212.

Turning to ATGCCTAG, the “PBM E-score” value is -0.0269.

With ACCCCTAT, the “PBM E-score” value was -0.0424.

Regarding AAGATGAA, the “PBM E-score” value is -0.083.
